Drawing on article doi:10.1101/2025.09.05.674523 (bioRxiv, 2025), this text covers binding for one substance.

Results are given in words; binding and its absence hold for the method and conditions named. Binding calls can cover weak binding; strength is not graded here.

This assay deals with T1, full-length recombinant mouse EPPIN (mEPPIN; L24-T134) (mouse) (UniProt Q9DA01).
T1 sequence: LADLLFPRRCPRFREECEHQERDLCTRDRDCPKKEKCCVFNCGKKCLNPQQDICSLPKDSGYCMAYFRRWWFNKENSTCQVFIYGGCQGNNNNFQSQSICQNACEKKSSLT
Description: AlphaScreen or HTRF. Background: In Alpha technology, singlet oxygen from a donor bead excites a nearby acceptor bead.

For “full-length recombinant mouse SEMG1 (mSEMG1; Q32-G375)”, the binding result was “binds”.
